Source: US20250051407

How the values were obtained:
[1] = test system: T1, DBP049 (synthetic construct); test: flow cytometry; details: 1 uM dsDNA with avidity; protein on the cell surface; protein details: yeast display (pETcon3, c-Myc); label: biotin
T1 sequence: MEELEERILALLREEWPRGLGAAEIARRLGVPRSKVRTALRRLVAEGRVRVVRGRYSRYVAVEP

[2] = test system: T2, DBP050 (synthetic construct); test: flow cytometry; details: 1 uM dsDNA with avidity; protein on the cell surface; protein details: yeast display (pETcon3, c-Myc); label: biotin
T2 sequence: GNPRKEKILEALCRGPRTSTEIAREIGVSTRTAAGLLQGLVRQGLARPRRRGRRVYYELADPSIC

[3] = test system: T3, DBP007 (synthetic construct); test: flow cytometry; details: 1 uM dsDNA without avidity; protein on the cell surface; protein details: yeast display (pETcon3, c-Myc); label: biotin
T3 sequence: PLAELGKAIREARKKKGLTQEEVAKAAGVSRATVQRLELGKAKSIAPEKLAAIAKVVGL

[4] = test system: T4, DBP023 (synthetic construct); test: flow cytometry; details: bound most of the 13 targets; protein on the cell surface; protein details: yeast display (pETcon3, c-Myc); label: biotin
T4 sequence: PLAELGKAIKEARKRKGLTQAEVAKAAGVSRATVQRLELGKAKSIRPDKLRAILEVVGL

[5] = test system: T5, DBP035 (synthetic construct); test: flow cytometry; details: 1 uM dsDNA yeast display; 3 base position specificity; protein on the cell surface; protein details: yeast display (pETcon3, c-Myc); label: biotin
T5 sequence: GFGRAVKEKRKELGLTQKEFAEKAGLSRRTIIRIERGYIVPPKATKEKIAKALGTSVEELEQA

[6] = test system: T6, DBP011 (synthetic construct); test: flow cytometry; details: 1 uM dsDNA without avidity; protein on the cell surface; protein details: yeast display (pETcon3, c-Myc); label: biotin
T6 sequence: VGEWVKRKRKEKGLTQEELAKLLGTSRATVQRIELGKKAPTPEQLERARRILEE

[7] = test system: T7, DBP026 (synthetic construct); test: flow cytometry; details: 1 uM dsDNA without avidity; protein on the cell surface; protein details: yeast display (pETcon3, c-Myc); label: biotin
T7 sequence: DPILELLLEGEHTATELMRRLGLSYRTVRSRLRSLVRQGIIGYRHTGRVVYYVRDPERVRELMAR

[8] = test system: T8, DBP024 (synthetic construct); test: flow cytometry; details: 1 uM dsDNA without avidity; protein on the cell surface; protein details: yeast display (pETcon3, c-Myc); label: biotin
T8 sequence: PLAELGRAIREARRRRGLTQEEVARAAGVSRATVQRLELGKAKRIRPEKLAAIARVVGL

[9] = test system: T9, DBP006 (synthetic construct); test: flow cytometry; details: specificity for TGCACA; strong preference for designed target; protein on the cell surface; protein details: yeast display (pETcon3, c-Myc); label: biotin
T9 sequence: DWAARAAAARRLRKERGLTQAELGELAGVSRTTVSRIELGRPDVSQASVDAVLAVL

[10] = test system: T10, DBP031 (synthetic construct); test: flow cytometry; details: 1 uM dsDNA without avidity; protein on the cell surface; protein details: yeast display (pETcon3, c-Myc); label: biotin
T10 sequence: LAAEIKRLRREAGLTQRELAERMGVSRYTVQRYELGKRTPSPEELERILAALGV

[11] = test system: T11, DBP009 (synthetic construct); test: flow cytometry; details: specificity for TGCACA; strong preference for designed target; protein on the cell surface; protein details: yeast display (pETcon3, c-Myc); label: biotin
T11 sequence: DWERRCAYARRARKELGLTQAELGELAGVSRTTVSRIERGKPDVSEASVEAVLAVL

[12] = test system: T12, DBP006 purified (synthetic construct); test: BLI; details: range for all purified designs; PBS, 1% BSA, 0.05% Tween 20; purified recombinant protein; protein details: His tag; label: biotin
T12 sequence: T9 sequence

[13] = test system: T13, DBP035 purified (synthetic construct); test: BLI; details: range for all purified designs; PBS, 1% BSA, 0.05% Tween 20; purified recombinant protein; protein details: His tag; label: biotin
T13 sequence: T5 sequence

[14] = test system: T14, DBP043 (synthetic construct); test: flow cytometry; details: 1 uM dsDNA yeast display; protein on the cell surface; protein details: yeast display (pETcon3, c-Myc); label: biotin
T14 sequence: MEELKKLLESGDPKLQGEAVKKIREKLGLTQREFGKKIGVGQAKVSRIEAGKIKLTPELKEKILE

[15] = test system: T15, DBP044 (synthetic construct); test: flow cytometry; details: bound most of the 13 targets; protein on the cell surface; protein details: yeast display (pETcon3, c-Myc); label: biotin
T15 sequence: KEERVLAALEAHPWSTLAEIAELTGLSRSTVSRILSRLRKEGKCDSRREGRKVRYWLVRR

[16] = test system: T16, DBP048 (synthetic construct); test: flow cytometry; details: strong binding to alternate target; protein on the cell surface; protein details: yeast display (pETcon3, c-Myc); label: biotin
T16 sequence: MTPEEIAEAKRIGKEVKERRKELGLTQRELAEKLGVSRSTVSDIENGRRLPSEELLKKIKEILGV

[17] = test system: T17, DBP047 (synthetic construct); test: flow cytometry; details: prefers less than 3 of 13 targets; protein on the cell surface; protein details: yeast display (pETcon3, c-Myc); label: biotin
T17 sequence: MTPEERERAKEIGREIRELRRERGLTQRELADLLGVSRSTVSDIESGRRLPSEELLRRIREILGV

[18] = test system: T18, DBP048 purified (synthetic construct); test: BLI; details: range for all purified designs; PBS, 1% BSA, 0.05% Tween 20; purified recombinant protein; protein details: His tag; label: biotin
T18 sequence: T16 sequence

[19] = test system: T19, DBP062 (synthetic construct); test: flow cytometry; details: strong preference for designed target; protein on the cell surface; protein details: yeast display (pETcon3, c-Myc); label: biotin
T19 sequence: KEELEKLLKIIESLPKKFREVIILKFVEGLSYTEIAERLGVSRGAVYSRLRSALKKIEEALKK

[20] = test system: T20, DBP061 (synthetic construct); test: flow cytometry; details: 1 uM dsDNA with avidity; protein on the cell surface; protein details: yeast display (pETcon3, c-Myc); label: biotin
T20 sequence: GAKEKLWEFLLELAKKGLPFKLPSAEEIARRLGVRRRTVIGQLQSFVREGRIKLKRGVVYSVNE

[21] = test system: T21, DBP062 purified (synthetic construct); test: BLI; details: range for all purified designs; PBS, 1% BSA, 0.05% Tween 20; purified recombinant protein; protein details: His tag; label: biotin
T21 sequence: T19 sequence

Measured: binding result

CGGAGGTAATGACG (double strand) [target J]
binds: [1] | [2]

GCAGATCTGCACATC (double strand) [target B]
binds: [3] | [4] | [5] | [6] | [7] | [8] | [9] | [10] | [11] | [12] | [13]

CGAGAACATAGTCG (double strand) [target G]
binds: [14] | [15]

CGACACCTGACGCG (double strand) [target D]
binds: [16] | [17] | [18]

CGCGATGCTTCTCG (double strand) [target F]
binds: [19] | [20] | [21]

For part of these data: Results from cells or extracts need not show a direct contact. Tags and fusion partners may be left off the protein sequences shown. For part of these data: The exact form of at least one protein or probe is not confirmed.
